Library screen at single concentrations

By UniProt entry, the sequences of proteins in these tests, tags left out.
UniProt P9WFT3, whole entry: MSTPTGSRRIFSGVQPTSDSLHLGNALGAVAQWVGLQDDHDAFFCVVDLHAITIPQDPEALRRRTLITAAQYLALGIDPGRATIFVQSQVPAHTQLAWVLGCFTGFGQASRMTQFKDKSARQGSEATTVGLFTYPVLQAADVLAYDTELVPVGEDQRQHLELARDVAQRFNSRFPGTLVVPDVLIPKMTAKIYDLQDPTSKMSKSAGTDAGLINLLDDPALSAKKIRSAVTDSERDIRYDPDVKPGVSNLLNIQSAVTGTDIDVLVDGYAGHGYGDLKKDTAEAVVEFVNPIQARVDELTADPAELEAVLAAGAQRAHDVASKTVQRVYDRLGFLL
UniProt I6X8D2, whole entry: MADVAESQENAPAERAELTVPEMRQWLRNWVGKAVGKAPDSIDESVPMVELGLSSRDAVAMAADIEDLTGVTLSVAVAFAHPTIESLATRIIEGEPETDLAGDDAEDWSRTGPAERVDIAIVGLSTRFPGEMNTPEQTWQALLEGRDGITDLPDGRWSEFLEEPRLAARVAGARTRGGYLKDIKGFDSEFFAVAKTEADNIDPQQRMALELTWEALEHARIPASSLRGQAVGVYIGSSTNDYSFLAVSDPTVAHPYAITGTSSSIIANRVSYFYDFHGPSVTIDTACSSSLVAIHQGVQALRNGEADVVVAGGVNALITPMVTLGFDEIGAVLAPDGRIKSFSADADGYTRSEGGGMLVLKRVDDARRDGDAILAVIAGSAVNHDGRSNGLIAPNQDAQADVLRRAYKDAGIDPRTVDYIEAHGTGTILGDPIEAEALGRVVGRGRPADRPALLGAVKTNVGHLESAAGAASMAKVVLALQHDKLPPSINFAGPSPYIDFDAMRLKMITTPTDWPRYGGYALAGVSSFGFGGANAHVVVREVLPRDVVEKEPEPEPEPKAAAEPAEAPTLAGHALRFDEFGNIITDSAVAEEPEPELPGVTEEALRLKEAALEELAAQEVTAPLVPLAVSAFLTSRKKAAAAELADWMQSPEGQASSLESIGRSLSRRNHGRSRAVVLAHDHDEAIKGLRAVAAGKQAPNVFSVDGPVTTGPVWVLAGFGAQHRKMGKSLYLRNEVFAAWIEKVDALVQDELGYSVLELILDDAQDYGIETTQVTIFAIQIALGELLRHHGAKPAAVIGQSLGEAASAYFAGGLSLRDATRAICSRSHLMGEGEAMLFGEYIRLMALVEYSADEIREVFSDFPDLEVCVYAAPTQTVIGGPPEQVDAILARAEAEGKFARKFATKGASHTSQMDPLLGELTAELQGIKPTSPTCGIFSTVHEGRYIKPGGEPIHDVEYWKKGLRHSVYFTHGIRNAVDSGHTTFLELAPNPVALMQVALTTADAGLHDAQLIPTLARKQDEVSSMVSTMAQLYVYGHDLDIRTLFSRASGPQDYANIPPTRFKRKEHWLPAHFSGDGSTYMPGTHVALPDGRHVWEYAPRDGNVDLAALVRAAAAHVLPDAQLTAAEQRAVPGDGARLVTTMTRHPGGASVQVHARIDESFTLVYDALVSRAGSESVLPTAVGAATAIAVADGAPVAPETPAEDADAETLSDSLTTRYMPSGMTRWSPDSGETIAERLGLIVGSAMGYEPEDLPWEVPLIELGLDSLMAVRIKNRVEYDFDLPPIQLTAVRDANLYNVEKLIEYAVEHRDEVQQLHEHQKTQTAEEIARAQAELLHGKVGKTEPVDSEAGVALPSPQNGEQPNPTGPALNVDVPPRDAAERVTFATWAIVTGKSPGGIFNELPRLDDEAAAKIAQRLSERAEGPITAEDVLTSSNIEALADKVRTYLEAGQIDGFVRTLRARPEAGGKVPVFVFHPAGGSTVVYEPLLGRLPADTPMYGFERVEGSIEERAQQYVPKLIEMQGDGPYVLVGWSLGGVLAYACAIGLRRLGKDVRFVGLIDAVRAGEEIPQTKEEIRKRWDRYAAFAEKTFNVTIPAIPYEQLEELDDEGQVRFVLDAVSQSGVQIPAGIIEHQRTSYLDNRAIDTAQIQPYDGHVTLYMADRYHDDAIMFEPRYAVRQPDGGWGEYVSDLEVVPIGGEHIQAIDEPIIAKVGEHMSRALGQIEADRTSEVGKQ
UniProt P9WNZ1, whole entry: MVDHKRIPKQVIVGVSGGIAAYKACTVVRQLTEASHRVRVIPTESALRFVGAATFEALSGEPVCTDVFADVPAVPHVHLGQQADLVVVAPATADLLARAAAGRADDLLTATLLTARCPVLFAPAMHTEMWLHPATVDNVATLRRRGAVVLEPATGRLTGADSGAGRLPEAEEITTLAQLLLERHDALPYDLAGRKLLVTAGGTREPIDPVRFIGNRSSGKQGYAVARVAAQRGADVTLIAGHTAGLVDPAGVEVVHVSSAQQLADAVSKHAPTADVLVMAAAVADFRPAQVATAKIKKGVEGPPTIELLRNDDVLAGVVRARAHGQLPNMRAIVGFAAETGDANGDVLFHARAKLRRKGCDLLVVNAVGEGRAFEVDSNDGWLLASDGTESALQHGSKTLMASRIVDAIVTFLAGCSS

The values are deposited in ChEMBL (CHEMBL3988442, “University of Dundee, Small-Polar-MMV Screening Library” (2021)).

MtTrpRS: 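Enzyme assay of tryptophanyl-tRNA synthetase; the read-out is not stated. Target: Tryptophan-tRNA ligase, Mycobacterium tuberculosis (UniProt P9WFT3). Compounds at 10 µM. Direction is not recorded; retested compounds ran higher, which suggests that high means inhibition. Size under these conditions: about 65,000 compounds, about 64 of them at 50% or above in at least one test.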
Pks13 thioesterase: 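Enzyme assay of the thioesterase domain of polyketide synthase 13; the read-out is not stated. Target: Polyketide synthase Pks13, Mycobacterium tuberculosis (UniProt I6X8D2). Compounds at 30 µM. Higher reads as stronger inhibition (inferred from which compounds were picked for retests). About 67,000 compounds were tested under these conditions; 0.46% (about 300) showed 50% or more at least once.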
CoaBC: 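Coenzyme A biosynthesis protein CoaBC, Mycobacterium tuberculosis (UniProt P9WNZ1). Enzyme assay of CoaBC with a phosphate dye (Biomol Green) read at 650 nm. Compounds at 30 µM. Direction is inferred from only a few compounds that gave an IC50; most scored high, so higher reads as stronger inhibition. Most strong results did not repeat in a second test. Size under these conditions: about 67,000 compounds, about 40 of them at 50% or above in at least one test.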

Results are given as percent effect. How 0% and 100% were set is not recorded. Most values in the screen are low, and negative values occur. This is an unselected part of the compounds tested. A dash means the value is not listed here; it may have been measured.

Compound,MtTrpRS,Pks13 thioesterase,CoaBC
Cc1cncc(C2CCN(C(=O)c3ccc(-n4cccn4)nc3)CC2)n1,-5.855%,4.726%,3.263%
CCCc1nnc(NC2CCN(Cc3ccc(F)c(F)c3)CC2)o1,0%,-35.56%,-
Cc1cc(C(=O)N2CCC(N3CCNC3=O)CC2)nn1C(C)(C)C,-3.054%,-25.46%,4.401%
CCn1nccc1CNc1[nH]cnc2nncc1-2,-0.144%,-3.604%,-0.2427%
Cc1ncsc1CCN1CCC(N(C)Cc2noc(C(C)C)n2)C1 (centres unmarked),0.7498%,5.233%,-2.269%
CCn1nc(CC(C)C)cc1C(=O)N1CCCC(C#N)C1 (centres unmarked),-2.018%,-7.746%,0.2016%
CC(c1cccnc1)N(C)C(=O)NCCOc1ccc(C#N)cc1 (centres unmarked),3.024%,1.016%,2.427%
CN(Cc1ccco1)[C@@H]1CN(Cc2ccsc2)C[C@@H]2CCCO[C@@H]21,-3.487%,-16.46%,5.462%
CCc1ccc(NC(=O)C2CCN(C(=O)COC)CC2)cc1,-1.89%,-,-1.279%
Cc1ccc(S(=O)(=O)CCC(=O)NCc2nnc3n2CCC3)cc1,-5.47%,-24.27%,-1.786%
CC(C)NC(=O)N1CC[C@@H]2CN(Cc3cccc(Cl)c3)S(=O)(=O)[C@@H]2CC1,4.722%,7.474%,2.919%
CC(C)[C@@H]1CN(C(=O)C2(c3ccccc3)CCN(C)CC2)C[C@H]1N(C)C,1.56%,-10.32%,1.597%
CCn1ccnc1CN(C)c1cc(C2CCCNC2)nc(C)n1 (centres unmarked),-3.249%,-25.21%,-8.811%
OCC1CCCCN1c1ccc(-c2nc(-c3ccccc3F)no2)cn1 (centres unmarked),-26.98%,-5.867%,9.649%
O=C(c1cccnc1)N1CCSCC1,2.955%,-14.42%,3.027%
N#Cc1ccccc1OCCN1CCCCC1C(=O)N1CCOCC1 (centres unmarked),15.47%,-0.8258%,8.8%
Cc1ccc(C(=O)N2CCCC2c2nnc3n2CCCCC3)o1 (centres unmarked),-3.033%,-11.61%,-2.532%
CN(C)C(=O)N1CCC2(C1)CN(c1cccnc1)C(=O)CN2C (centres unmarked),-6.826%,-22.19%,0.3699%
Cc1noc(C)c1CN1CCN(CCN(C)C)c2ncccc2C1,0.7757%,-0.5326%,-40.83%
Cc1ncsc1CCN(C)C(=O)CN1CCCCC1=O,2.514%,-28.69%,6.237%
O=C(Cc1cccnc1)N1CCC(OCc2ccccc2)CC1,4.762%,11.38%,1.754%
Cc1ccc(N2C[C@H]3CCC[C@@H](CN4CCOCC4)[C@H]3C2)nn1,-4.161%,-22.1%,4.167%
CCC(CO)NCc1ccc(-c2ccccc2)o1 (centres unmarked),3.344%,19.95%,3.356%
Cc1ncc(CN2CCCC(O)(c3ccc(F)cc3)CC2)n1C (centres unmarked),-4.167%,10.72%,2.871%
Cc1ccc(C(=O)N2CCC3(CC2)CC(c2ccccc2)C(=O)N3)cn1 (centres unmarked),9.339%,-14.56%,2.665%
CN(C)c1cc2c(nn1)CCN(C(=O)C1COc3ccccc3C1)C2 (centres unmarked),-0.3127%,-11%,0.3745%
CCc1nc(N2CCC3(CCC(=O)N(Cc4ccncc4)C3)CC2)no1,2.083%,-14.08%,7.071%
COCCN1C[C@@H]2CN(Cc3ccc(C)s3)CCC[C@]2(C(=O)O)C1,-,-42.24%,-1.235%
CCc1ccccc1CNC(=O)CCc1cnn(C)c1,-6.147%,-10.43%,5.524%
COc1ccc(F)c(CN2CCCC(c3cc(O)nc(C)n3)C2)c1 (centres unmarked),1.467%,-12.42%,3.249%
CCOCC(=O)N1CCCn2c(CN3CCCCC3)nnc2C1,2.65%,-0.8628%,-0.4847%
COc1ccc(Cn2c(=O)n(C)c(=O)c3sccc32)cc1,-3.076%,-30.96%,6.399%
CC(=O)NCC(=O)N1CCN(Cc2ccncc2)c2ncccc2C1,7.809%,-2.326%,-0.3708%
NC(=O)c1ccccc1Oc1cccc(C2CCCNC2)n1 (centres unmarked),-6.167%,4.199%,1.399%
O=C(CN1CCC(C(=O)c2cc(F)ccc2F)CC1)NC1CC1,-0.1505%,-4.631%,2.439%
Cc1ncsc1CN(C)Cc1cc2c(cc1OC(F)F)OCO2,0.3268%,-4.892%,3.562%
N#Cc1cccc(CN(CCO)Cc2ccsc2)c1,-0.3408%,-6.218%,0.2532%
O=C(c1cccnc1)N1C[C@H]2CN(Cc3cccc(F)c3)C(=O)[C@H]2C1,-0.07639%,0.6739%,-2.637%
COc1ccc(CN2C[C@@H]3COC[C@]3(CN(C)C)C2)cc1,-0.2876%,-11.48%,2.445%
O=C(N[C@@H]1CN(Cc2cccs2)[C@@H]2COC[C@@H]21)C1CCC1,-0.239%,23.22%,-0.2105%
CCNC(=O)N1CCC(=Cc2ccccc2)CC1,0.2913%,-7.201%,6.061%
CCC(CO)N(Cc1ccsc1)Cc1ccccc1C#N (centres unmarked),8.448%,-20.32%,5.052%
COC(=O)c1ncccc1N1CCC(C(O)c2ccccc2)CC1 (centres unmarked),0.9524%,-4.048%,2.39%
COC(=O)c1cccc(NC(=O)CCn2nc(-c3cccs3)oc2=O)c1,-4.179%,-7.66%,5.734%

3 of the entries, repeated:

Compound	MtTrpRS	Pks13 thioesterase	CoaBC
CN(C)c1cc2c(nn1)CCN(C(=O)C1COc3ccccc3C1)C2 (centres unmarked)	-0.3127%	-11%	0.3745%
OCC1CCCCN1c1ccc(-c2nc(-c3ccccc3F)no2)cn1 (centres unmarked)	-26.98%	-5.867%	9.649%
Cc1cncc(C2CCN(C(=O)c3ccc(-n4cccn4)nc3)CC2)n1	-5.855%	4.726%	3.263%